Measurements reported in PubChem BioAssay AID1224830 (NIAID, 2016).
Shown is a random part of about 18,000 reagents tested. About 2,900 of all reagents (16%) count as active. 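Calls are made per well; low scores hint the gene aids the LPS response, high scores that it dampens it.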 Repeated entries: four replicate wells of each siRNA pool.

- Assay: 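Host factors that control LPS-induced TNF expression in human macrophages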 (primary screen)
- System: human THP-1 monocytic leukaemia cells, TNF dual-luciferase reporter clone, PMA-differentiated to macrophage-like cells
- Reagents: siRNA pool against human genes, 50 nM
- Timing: LPS for 4 h, given about 3 days after siRNA transfection
- Challenge: bacterial LPS (TLR4 ligand), 10 ng/ml
- Measured: 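TNF firefly reporter luminescence divided by renilla, normalised to the plate median, then turned into a robust z-score for each replicate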
- Scale: TNF reporter robust z-score: higher = stronger TNF reporter response to LPS
- Call rule: 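a well is active when its z-score exceeds 2.8 or falls below -1.5; control wells carry no call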

Gene	TNF reporter robust z-score	activity call
OR10A7	0.07	inactive
OR10A7	1.47	inactive
OR10A7	-0.34	inactive
PPP3R1	0.42	inactive
PPP3R1	3.73	active
PPP3R1	1.74	inactive
PPP3R1	-1.28	inactive
PATL1	-1.54	active
PATL1	0.06	inactive
PATL1	1.04	inactive
PATL1	1	inactive
HEXA	2.08	inactive
HEXA	4.06	active
HEXA	2.09	inactive
HEXA	4.98	active
PPP2R3A	-1.76	active
PPP2R3A	-0.25	inactive
PPP2R3A	1.09	inactive
PPP2R3A	0.69	inactive
SPANXN4	-1.33	inactive
SPANXN4	-0.87	inactive
SPANXN4	-1.25	inactive
SPANXN4	-1.18	inactive
MUSK	-1.09	inactive
MUSK	-0.93	inactive
MUSK	-0.75	inactive
MUSK	-1.29	inactive
GFRA2	0.38	inactive
GFRA2	1.64	inactive
GFRA2	-0.12	inactive
GFRA2	1.53	inactive
MB21D2	-1.26	inactive
MB21D2	-0.21	inactive
MB21D2	-1.17	inactive
MB21D2	-1.09	inactive
YWHAB	-0.06	inactive
YWHAB	0.26	inactive
YWHAB	-0.9	inactive
YWHAB	-0.14	inactive
WHR1	-0.89	inactive
WHR1	-0.49	inactive
WHR1	-0.63	inactive
WHR1	0.8	inactive
KISS1	-0.79	inactive
KISS1	-1.28	inactive
KISS1	-1.4	inactive
KISS1	-1.71	active

Reformatted: entries from further up.
PPP2R3A
- TNF reporter robust z-score: -1.76
- activity call: active

PPP2R3A
- TNF reporter robust z-score: -0.25
- activity call: inactive

PPP2R3A
- TNF reporter robust z-score: 1.09
- activity call: inactive

PPP2R3A
- TNF reporter robust z-score: 0.69
- activity call: inactive

SPANXN4
- TNF reporter robust z-score: -1.33
- activity call: inactive

SPANXN4
- TNF reporter robust z-score: -0.87
- activity call: inactive

SPANXN4
- TNF reporter robust z-score: -1.25
- activity call: inactive

SPANXN4
- TNF reporter robust z-score: -1.18
- activity call: inactive

MUSK
- TNF reporter robust z-score: -1.09
- activity call: inactive

MUSK
- TNF reporter robust z-score: -0.93
- activity call: inactive

MUSK
- TNF reporter robust z-score: -0.75
- activity call: inactive

MUSK
- TNF reporter robust z-score: -1.29
- activity call: inactive

GFRA2
- TNF reporter robust z-score: 0.38
- activity call: inactive

GFRA2
- TNF reporter robust z-score: 1.64
- activity call: inactive

GFRA2
- TNF reporter robust z-score: -0.12
- activity call: inactive

GFRA2
- TNF reporter robust z-score: 1.53
- activity call: inactive

MB21D2
- TNF reporter robust z-score: -1.26
- activity call: inactive

Continued.
Gene	TNF reporter robust z-score	activity call
HTR3B	-0.72	inactive
HTR3B	-0.6	inactive
HTR3B	-1.35	inactive
HTR3B	-0.06	inactive
DKKL1	-1.58	active
DKKL1	-1.42	inactive
DKKL1	-1.61	active
DKKL1	-0.77	inactive
PRLHR	-0.92	inactive
PRLHR	-0.02	inactive
PRLHR	-0.06	inactive
PRLHR	-0.24	inactive
BRCC3	-0.65	inactive
BRCC3	0.57	inactive
BRCC3	0.1	inactive
BRCC3	-0.38	inactive
ELMO1	0.01	inactive
ELMO1	1.1	inactive
ELMO1	-0.09	inactive
ELMO1	0.63	inactive
SLX4IP	-1.01	inactive
SLX4IP	-1.02	inactive
SLX4IP	-0.58	inactive
SLX4IP	-0.52	inactive
THAP10	0.27	inactive
THAP10	2.85	active
THAP10	0.49	inactive
THAP10	0.53	inactive
RAP2B	-1.56	active
RAP2B	-1.15	inactive
RAP2B	-1.83	active
RAP2B	-1	inactive
PDE11A	1.89	inactive
PDE11A	1.44	inactive
PDE11A	0.31	inactive
PDE11A	-0.02	inactive
FUOM	-0.09	inactive
FUOM	0.4	inactive
FUOM	0.12	inactive
FUOM	0.8	inactive
SYVN1	-0.83	inactive
SYVN1	-0.12	inactive
SYVN1	0.9	inactive
SYVN1	0.85	inactive
SLAMF8		inactive
SLAMF8	0.63	inactive
SLAMF8	0.26	inactive
SLAMF8	1.07	inactive
PYROXD2	0.85	inactive
PYROXD2	1.06	inactive
PYROXD2	-0.37	inactive
PYROXD2	0.43	inactive
OR52B2	-0.26	inactive
OR52B2	0.32	inactive
OR52B2	-0.58	inactive
OR52B2	0.2	inactive
CTIF	0.57	inactive
CTIF	-0.91	inactive
CTIF	-0.92	inactive
CTIF	-1.02	inactive
AP5Z1	-0.25	inactive
AP5Z1	-0.18	inactive
AP5Z1	0.57	inactive
AP5Z1	0.11	inactive
CCDC167	0.01	inactive
CCDC167	-0.23	inactive
CCDC167	-0.2	inactive
CCDC167	-0.77	inactive
UBR5	-0.6	inactive
UBR5	-0.47	inactive
UBR5	-0.48	inactive
UBR5	-0.79	inactive
DMGDH	-1.64	active
DMGDH	-1.23	inactive
DMGDH	-0.89	inactive
DMGDH	-1.19	inactive
PCDHGB7	-1.72	active
PCDHGB7	0.36	inactive
PCDHGB7	-0.84	inactive
PCDHGB7	-1.06	inactive
TCAIM	2.08	inactive
TCAIM	1.73	inactive
TCAIM	2.31	inactive
TCAIM	1.59	inactive
KRTAP5-2	-0.06	inactive
KRTAP5-2	-1.41	inactive
KRTAP5-2	-0.56	inactive
KRTAP5-2	0.51	inactive
LRRTM3	-0.61	inactive
LRRTM3	0.71	inactive
LRRTM3	-0.36	inactive
LRRTM3	0.41	inactive
PLCL2	0.48	inactive
PLCL2	0	inactive
PLCL2	-0.35	inactive
PLCL2	44.2	active
